Results: patent publication US4659716A, “Antihistaminic 8-(halo)-substituted 6,11-dihydro-11-(4-piperidylidene)-5H-benzo[5,6]cyclohepta[1,2-b]pyridin es” (Schering Corporation, priority 1986, dated 1987)

How the values were obtained:
[1] = Antagonism of electro-convulsive shock (ECS) (D); type: in vivo, mice; settings: mouse, oral, 1 hour before 13 mA shock, read-out: CNS Activity, D. ECS test ED50
Procedure: (§1) Compounds A and B were also tested for antihistaminic activity by the procedures set forth in paragraph A below and for CNS activity by the procedures set forth in paragraphs B, C, and D below.
D. Antagonism of Electro-Convulsive Shock (ECS). For the ECS test, a modification of the method of TOMAN et al., J. Neurophysiol., 9, 231-239 (1946), was used. One hour after oral administration of the test drug or vehicle, mice were administered a 13 mA, 60 cycle a.c. electroconvulsant shock (ECS) for 0.2 seconds via corneal electrodes. This shock intensity produces tonic convulsions, defined as extension of the hind limbs, in at least 95% of vehicle-treated mice.

[2] = test system: CNS activity; test: CNS test procedures B, C and D taken together; type: in vivo, mice; settings: oral
Procedure: as §1
(§2) B. Antagonism of Physostigmine Lethality. The physostigmine-induced lethality test used was a modification of the technique reported by COLLIER et al., Br. J. Pharmac., 32, 295-310 (1968). Physostigmine salicylate (b 1.0 mg/kg s.c.) produces 100% lethality when administered to mice grouped 10 per plastic cage (11×26×13 cm). Test agents were administered orally 30 minutes prior to physostigmine. The number of survivors were counted 20 minutes after physostigmine administration.
(§3) C. Antagonism of Acetic Acid Writhing. The acetic acid writhing test used was essentially that described by HENDERSHOT and FORSAITH, J. Pharmac. Exp. Ther., 125, 237-240 (1959), except that acetic acid rather than phenylquinone was used to elicit writhing. Mice were injected with 0.6% aqueous acetic acid at 10 mg/kg i.p. 15 minutes after oral administration of the test drug. The number of writhes for each animal was counted during a 10 minute period starting 3 minutes after acetic acid treatment. A writhe was defined as a sequence of arching of the back, pelvic rotation and hind limb extension.
D. Antagonism of Electro-Convulsive Shock (ECS). […]

[3] = Antagonism of physostigmine lethality (B); type: in vivo, mice; settings: mouse, physostigmine-induced lethality; oral, unit inferred; read-out: ED50 in the physostigmine-induced lethality test
Procedure: as §1, §2
Of the above test procedures for measuring CNS activity of antihistamines, the physostigmine-induced lethality test is believed to be a major index of non-sedating characteristics, since it reflects mainly central anticholinergic potency which is believed to contribute to sedative activity.

[4] = test system: histamine-induced lethality; test: Prevention of histamine-induced lethality in guinea pigs (A); type: in vivo, guinea pigs (female albino); settings: Cavia porcellus; oral, 1 hour prior to i.v. histamine 1.1 mg/kg; read-out: Antihistaminic Activity, A. G. pig. p.o. ED50
Procedure: as §1
A. Prevention of histamine-induced lethality in guinea pigs. Compounds A and B were evaluated for their ability to protect female albino guinea pigs (250-350 g) against death induced by the intravenous injection of histamine dihydrochloride at 1.1 mg/kg, which is approximately twice the LD99. Doses of the antagonists were administered orally to separate groups of fasted animals 1 hour prior to the challenge with histamine and protection from death recorded for 30 minutes after histamine. ED50 values were determined for each drug by […].

[5] = Antagonism of acetic acid writhing (C); type: in vivo, mice; settings: mouse, oral, 15 minutes before acetic acid i.p., read-out: CNS Activity, C. Acetic writhing ED50
Procedure: as §1, §3

[6] = test system: histamine-induced paw edema; test: Histamine-induced paw edema in mice (oral); type: in vivo, mice (male CF1)
Procedure: For example, the ability of the compounds to reduce histamine-induced paw edema in mice may be measured by use of the following method.
Male CF1 mice, 25-30 g, are housed under conditions of controlled temperature and humidity with a 12 hour dark/light cycle. Food and water are allowed ad libitum. The mice are randomly assigned to the treatment groups. One hour after treatment with a compound of the invention or vehicle, the mice are lightly anesthetized with ether. The left hind paw of each mouse serves as a control and is injected with 25 μl of isotonic saline. The right hind paw serves as the experimental paw and is injected with 25 μl of isotonic saline containing 13 μg histamine dihydrochloride. Thirty minutes later the mice are killed by cervical dislocation and both hind paws of each mouse are removed by cutting at the tarsal joint. The weight of each paw is recorded and the difference in weight between the compound-treated and the placebo-treated groups is evaluated using Student's "t" test. The ED50 values (the dose causing 50% inhibition of histamine-induced edema) and 95% confidence limits are determind by the Linear Least Square Dose-Response method [Brownlee, K. A., "Statistical Theory And Methodology In Science and Engineering", 2nd Ed., J. Wiley and Sons, New York, 1965, pp. 346-349].

With Clc1ccc2c(c1)CCc1cccnc1C2=C1CCNCC1 [Compound A, 8-chloro-6,11-dihydro-11-(4-piperidylidene)-5H-benzo[5,6]cyclohepta[1,2-b]pyridine] the ED50 at 1 h [1] was 160 mg/kg, the “Activity in all of the CNS test procedures” value [2] was “relatively inactive” and the ED50 [3] was > 320 mg/kg. For the same compound, the ED50 [4] was 0.15 mg/kg, the ED50 [5] was 147 mg/kg and the ED50 ([6]; Mus musculus, dose causing 50% inhibition of histamine-induced edema, oral, 1 hour before) was 0.15 mg/kg. The “Increased Paw Weight, % Inhibition” value ([6]; oral dose 0.03 mg/kg, 8 animals) was 11%, the “Increased Paw Weight, % Inhibition” value ([6]; oral dose 0.1 mg/kg, 7 animals) was 42% and the “Increased Paw Weight, % Inhibition” value ([6]; oral dose 0.3 mg/kg, 8 animals) was 73%. The “Increased Paw Weight, % Inhibition” value ([6]; oral dose 1.0 mg/kg, 8 animals) was 89%.
